Source: patent publication US8575146B2, “Pharmaceutical uses of staurosporine derivatives” (Novartis AG, priority 2003, dated 2013)

Test system: BR and C2 canine mastocytoma cells
Assay: XTT-based proliferation assay of canine mast cell tumor cell lines
Settings: BR or C2 cells
Excerpt: The C2 cell line has an internal tandem duplication (ITD) of the KIT juxtamembrane region.

`CO[C@@H]1[C@H](N(C)C(=O)c2ccccc2)C[C@H]2O[C@]1(C)n1c3ccccc3c3c4c(c5c6ccccc6n2c5c31)C(=O)NC4` [PKC412, N-[(9S, 10R,11R,13R)-2,3,10,11,12,13-hexahydro-10-methoxy-9-methyl-1-oxo-9,13-epoxy-1H,9H-diindolo[1,2,3-gh:3′,2′,1′-lm]pyrrolo[3,4j][1,7]benzodiazonin-11-yl]-N-methylbenzamide] was tested, and the inhibition of proliferation (0.001-0.01 μM, 48-72 hours) was “Partial inhibition” and the “Morphologic observations of the inhibitor treated cells” value was “changes consistent with apoptosis”.
